Measurements: patent US8637647 (dated 2014)

Assay: peptide synthesis
Details: lipidation step, RP HPLC (260 nm)

Substance: A14E, B25H, B29K(N^εEicosanedioyl-gGlu-OEG-OEG), desB27, desB30 human insulin
- crude LC-MS purity: 61.7%
- final LC-MS purity: 100% purity
